Results on 1 molecule are retold here after patent publication US20030130166A1, “Polynucleotide encoding a human junctional adhesion protein (JAM2)” (priority 1999, published 2003).

By UniProt entry, the sequences of proteins in these tests, tags left out. Where a name states a change or a piece, a line headed by the entry shows the natural chain unless it says otherwise.
UniProt P13612: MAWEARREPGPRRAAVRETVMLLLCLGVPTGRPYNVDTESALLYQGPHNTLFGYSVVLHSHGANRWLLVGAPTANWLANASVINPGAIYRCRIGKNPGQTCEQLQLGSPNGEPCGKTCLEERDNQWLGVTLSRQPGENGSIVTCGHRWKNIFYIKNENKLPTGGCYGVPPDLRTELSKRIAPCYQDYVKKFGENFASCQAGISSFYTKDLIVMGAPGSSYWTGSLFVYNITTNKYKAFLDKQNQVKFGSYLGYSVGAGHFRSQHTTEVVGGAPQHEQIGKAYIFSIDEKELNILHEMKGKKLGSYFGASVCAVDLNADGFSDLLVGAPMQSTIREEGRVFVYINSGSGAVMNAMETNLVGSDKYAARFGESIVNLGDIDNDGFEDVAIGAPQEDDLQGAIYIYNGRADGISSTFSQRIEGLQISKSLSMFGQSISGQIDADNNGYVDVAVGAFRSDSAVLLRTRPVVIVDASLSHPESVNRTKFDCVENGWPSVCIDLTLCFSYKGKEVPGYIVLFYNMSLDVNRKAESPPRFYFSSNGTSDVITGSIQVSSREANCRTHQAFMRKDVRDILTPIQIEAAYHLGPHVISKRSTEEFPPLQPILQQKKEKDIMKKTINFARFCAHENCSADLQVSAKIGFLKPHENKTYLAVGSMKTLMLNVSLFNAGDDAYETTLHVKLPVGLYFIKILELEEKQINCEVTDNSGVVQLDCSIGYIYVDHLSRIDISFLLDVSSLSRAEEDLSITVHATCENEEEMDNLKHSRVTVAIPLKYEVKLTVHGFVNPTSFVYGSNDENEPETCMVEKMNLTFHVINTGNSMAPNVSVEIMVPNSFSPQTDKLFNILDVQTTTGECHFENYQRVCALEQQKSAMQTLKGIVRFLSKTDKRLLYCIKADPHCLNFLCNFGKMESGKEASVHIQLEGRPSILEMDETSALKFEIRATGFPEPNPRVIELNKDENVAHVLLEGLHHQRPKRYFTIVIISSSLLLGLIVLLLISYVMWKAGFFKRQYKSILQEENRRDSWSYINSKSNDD

Results are given in words; binding and its absence hold for the method and conditions named. Some results given as binding are weak or reduced against the parent protein; the word gives no strength. Tags and fused reporters may be left off the sequences shown.

Test [1] concerns the target T1, human JAM3 (Junctional Adhesion Molecule 3), endogenous on HSB T cells (human) (UniProt Q9BX67).
T1 sequence (looked up): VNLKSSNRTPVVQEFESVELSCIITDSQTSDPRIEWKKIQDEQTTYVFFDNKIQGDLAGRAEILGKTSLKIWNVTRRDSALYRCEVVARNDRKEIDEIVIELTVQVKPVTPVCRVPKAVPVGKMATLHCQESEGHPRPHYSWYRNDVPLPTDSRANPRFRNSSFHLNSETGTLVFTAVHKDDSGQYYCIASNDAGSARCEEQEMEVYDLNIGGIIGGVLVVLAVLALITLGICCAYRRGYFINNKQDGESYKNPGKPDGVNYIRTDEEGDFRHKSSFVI
Put plainly: adhesion of calcein-labelled HSB cells to captured D1 fusion protein (FIG. 10).

The target of test [2] is α4β1 integrin, endogenous on HSB T cells (UniProt P13612). Put plainly: adhesion of calcein-labelled HSB cells to captured D1 fusion protein in TBS+Mn (FIG. 10).

B1: secreted fusion protein of JAM2 Ig fold 1 (D1) (Fc fusion, not shown: a dimerising Fc or GST)
chain: FSAPKDQQVVTAVEYQEAILACKTPKKTVSSRLEWKKLGRSVSFVYYQQTLQGDFKNRAEMIDFNIRIKNVTRSDAGKYRCEVSAPSEQGQNLEEDTVTLEV
Take B1: the binding result in test [1] and in test [2] was “binds” in each case.
